In the supplement of paper PMC10849652:
The list shows a part of the results.

Protein sequences, listed by entry. Tags and fused reporters are not part of them. Lines headed by an entry give the natural chain unless they say otherwise; changes in a name come on top.
UniProt O00217, whole entry, looked up: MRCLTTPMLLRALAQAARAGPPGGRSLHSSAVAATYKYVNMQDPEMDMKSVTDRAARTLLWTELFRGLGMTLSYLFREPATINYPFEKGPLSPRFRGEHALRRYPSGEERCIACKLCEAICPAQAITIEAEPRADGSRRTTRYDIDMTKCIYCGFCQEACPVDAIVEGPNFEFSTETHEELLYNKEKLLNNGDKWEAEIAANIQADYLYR
UniProt Q9BU61: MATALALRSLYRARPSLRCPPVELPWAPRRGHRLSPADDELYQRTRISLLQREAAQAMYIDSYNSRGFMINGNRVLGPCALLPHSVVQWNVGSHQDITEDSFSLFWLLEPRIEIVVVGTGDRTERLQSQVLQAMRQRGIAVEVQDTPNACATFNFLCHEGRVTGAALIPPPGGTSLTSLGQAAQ
UniProt Q96PU5: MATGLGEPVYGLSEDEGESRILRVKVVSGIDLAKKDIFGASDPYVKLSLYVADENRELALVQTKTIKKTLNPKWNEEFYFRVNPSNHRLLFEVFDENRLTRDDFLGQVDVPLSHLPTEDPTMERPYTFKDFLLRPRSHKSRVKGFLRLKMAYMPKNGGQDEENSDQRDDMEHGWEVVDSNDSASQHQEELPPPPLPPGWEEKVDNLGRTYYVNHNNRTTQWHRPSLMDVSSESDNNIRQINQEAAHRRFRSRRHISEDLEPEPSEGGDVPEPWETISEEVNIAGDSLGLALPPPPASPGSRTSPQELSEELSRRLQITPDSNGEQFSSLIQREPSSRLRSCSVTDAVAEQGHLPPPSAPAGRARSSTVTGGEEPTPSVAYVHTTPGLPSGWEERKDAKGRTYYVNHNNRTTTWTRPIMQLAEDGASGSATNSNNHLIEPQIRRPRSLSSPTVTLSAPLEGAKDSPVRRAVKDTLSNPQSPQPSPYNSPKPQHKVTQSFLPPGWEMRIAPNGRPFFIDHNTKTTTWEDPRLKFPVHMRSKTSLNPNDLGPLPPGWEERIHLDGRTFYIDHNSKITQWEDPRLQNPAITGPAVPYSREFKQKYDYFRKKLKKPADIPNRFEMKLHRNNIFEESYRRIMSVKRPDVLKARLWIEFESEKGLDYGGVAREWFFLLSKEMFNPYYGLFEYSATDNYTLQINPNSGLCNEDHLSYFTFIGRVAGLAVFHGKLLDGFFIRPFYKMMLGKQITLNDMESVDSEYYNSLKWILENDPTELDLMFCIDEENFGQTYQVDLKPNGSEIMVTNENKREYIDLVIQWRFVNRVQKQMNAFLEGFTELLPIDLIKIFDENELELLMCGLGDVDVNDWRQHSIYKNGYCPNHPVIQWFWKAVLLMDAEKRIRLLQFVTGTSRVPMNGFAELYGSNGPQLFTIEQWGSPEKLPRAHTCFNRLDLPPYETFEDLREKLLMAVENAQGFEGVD
UniProt Q9H0A0: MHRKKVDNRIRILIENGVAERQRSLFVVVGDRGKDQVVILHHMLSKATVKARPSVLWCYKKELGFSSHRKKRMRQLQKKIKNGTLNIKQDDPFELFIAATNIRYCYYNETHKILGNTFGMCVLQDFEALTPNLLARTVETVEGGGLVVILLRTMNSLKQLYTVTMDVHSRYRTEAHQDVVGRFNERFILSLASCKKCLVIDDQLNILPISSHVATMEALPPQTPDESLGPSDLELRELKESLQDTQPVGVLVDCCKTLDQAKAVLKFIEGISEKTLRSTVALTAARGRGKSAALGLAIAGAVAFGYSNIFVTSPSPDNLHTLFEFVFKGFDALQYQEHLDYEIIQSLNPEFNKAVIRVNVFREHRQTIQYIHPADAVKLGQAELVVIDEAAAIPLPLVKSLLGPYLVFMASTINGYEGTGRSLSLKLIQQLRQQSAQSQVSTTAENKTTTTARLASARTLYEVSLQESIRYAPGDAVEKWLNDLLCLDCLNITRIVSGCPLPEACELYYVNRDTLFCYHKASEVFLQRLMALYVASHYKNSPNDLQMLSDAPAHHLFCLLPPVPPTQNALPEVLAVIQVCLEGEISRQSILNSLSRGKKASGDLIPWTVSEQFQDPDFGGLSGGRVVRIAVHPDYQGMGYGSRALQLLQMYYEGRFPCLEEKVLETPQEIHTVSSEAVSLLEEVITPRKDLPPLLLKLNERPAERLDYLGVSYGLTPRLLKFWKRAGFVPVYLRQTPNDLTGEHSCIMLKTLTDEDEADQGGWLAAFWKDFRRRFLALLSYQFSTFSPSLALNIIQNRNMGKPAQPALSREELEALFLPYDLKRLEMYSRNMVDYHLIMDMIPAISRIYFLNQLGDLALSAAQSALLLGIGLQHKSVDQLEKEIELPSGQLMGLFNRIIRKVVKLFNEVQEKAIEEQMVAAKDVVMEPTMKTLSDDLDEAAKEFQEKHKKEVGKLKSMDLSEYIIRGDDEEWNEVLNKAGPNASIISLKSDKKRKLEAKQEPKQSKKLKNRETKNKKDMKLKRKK
UniProt Q99733: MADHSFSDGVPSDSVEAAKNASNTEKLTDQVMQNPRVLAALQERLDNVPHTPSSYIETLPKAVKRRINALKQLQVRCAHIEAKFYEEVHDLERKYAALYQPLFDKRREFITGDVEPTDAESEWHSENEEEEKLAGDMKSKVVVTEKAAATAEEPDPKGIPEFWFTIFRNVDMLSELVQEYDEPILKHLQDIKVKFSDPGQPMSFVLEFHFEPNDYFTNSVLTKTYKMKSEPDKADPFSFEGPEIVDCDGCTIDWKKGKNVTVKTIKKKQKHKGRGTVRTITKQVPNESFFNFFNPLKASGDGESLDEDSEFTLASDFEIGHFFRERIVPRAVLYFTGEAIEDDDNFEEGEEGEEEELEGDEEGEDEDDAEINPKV
UniProt Q99747: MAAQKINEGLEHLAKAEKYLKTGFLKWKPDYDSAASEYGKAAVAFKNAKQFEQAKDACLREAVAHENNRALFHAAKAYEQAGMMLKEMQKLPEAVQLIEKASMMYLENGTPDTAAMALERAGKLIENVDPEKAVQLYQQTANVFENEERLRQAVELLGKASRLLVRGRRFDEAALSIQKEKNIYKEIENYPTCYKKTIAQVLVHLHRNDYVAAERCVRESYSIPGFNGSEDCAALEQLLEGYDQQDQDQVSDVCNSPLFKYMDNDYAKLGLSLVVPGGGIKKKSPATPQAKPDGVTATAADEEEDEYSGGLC
UniProt Q6PIU2: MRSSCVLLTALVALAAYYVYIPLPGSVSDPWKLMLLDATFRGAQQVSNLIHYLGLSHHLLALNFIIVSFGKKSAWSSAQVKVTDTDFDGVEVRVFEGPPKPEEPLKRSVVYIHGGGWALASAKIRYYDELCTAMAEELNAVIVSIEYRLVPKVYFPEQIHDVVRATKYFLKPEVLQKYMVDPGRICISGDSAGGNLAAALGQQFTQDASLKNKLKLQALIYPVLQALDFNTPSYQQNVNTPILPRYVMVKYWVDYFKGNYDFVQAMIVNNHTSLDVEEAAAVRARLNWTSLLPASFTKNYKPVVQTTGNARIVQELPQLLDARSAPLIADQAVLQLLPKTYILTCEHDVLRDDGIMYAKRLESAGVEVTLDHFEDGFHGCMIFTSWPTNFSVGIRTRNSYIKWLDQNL
UniProt O95299, whole entry, looked up: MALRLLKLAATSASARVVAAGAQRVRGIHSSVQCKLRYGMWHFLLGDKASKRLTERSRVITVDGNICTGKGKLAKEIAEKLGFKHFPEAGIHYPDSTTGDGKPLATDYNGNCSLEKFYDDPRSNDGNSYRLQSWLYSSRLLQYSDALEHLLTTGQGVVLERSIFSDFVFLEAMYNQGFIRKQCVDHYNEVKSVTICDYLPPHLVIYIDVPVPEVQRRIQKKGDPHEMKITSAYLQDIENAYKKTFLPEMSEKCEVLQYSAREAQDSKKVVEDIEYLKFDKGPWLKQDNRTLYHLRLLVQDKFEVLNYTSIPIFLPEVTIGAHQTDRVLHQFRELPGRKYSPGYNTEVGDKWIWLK
UniProt P52848: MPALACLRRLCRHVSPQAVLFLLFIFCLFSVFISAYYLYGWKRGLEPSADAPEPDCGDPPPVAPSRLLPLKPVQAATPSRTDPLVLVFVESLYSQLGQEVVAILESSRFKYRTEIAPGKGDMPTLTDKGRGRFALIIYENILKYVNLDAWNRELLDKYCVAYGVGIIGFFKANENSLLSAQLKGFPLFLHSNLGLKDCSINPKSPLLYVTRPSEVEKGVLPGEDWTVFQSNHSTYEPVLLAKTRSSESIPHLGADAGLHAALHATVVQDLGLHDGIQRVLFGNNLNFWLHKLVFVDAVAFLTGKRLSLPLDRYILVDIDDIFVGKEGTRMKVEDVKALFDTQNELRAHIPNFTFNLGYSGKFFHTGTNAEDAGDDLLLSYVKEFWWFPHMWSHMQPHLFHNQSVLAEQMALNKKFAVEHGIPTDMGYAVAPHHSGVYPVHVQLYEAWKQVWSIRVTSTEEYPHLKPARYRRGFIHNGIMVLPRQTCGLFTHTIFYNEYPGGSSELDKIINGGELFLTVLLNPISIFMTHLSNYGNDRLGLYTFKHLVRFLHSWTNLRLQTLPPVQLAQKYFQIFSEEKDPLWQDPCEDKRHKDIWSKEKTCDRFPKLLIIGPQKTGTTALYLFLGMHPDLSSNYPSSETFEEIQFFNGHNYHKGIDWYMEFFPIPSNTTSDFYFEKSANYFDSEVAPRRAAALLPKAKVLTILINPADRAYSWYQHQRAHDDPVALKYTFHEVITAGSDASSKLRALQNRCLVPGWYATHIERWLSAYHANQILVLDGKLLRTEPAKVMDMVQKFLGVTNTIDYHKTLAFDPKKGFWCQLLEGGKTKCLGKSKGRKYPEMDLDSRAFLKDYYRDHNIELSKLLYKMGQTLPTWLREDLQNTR

Key:
Test in all cases: log2 fold change, soluble protein after heating vs DMSO (PISA); higher = thermal stabilisation; K562 cells, 10 uM, 30 min; active = over 0.2 and 3.5 SD of the protein, either way, in both replicates (recomputed)
bafetinib = compound: Cc1ccc(NC(=O)c2ccc(CN3CC[C@H](N(C)C)C3)c(C(F)(F)F)c2)cc1Nc1nccc(-c2cncnc2)n1 [bafetinib]
Summary of the method: (§1)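 Aliquots of K562 cells (2×10^6 cells/mL) treated with 10 μM compound for 30 min were heated for 3 min over 48°C-58°C. After pooling and extraction in PBS with 0.5% NP-40 at 4°C, soluble protein from a 21,000xg, 90 min spin was quantified by TMTpro 16plex LC-MS/MS with channel sums equalised. Thermal stability is expressed against control samples, from duplicates, as a log2 fold change.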

[1] = compound: Cc1cccc(CC(=O)N2CCc3c2ccc(-c2cn(C)c4ncnc(N)c24)c3F)n1
Summary of the method: as §1

nilotinib = compound: Cc1cn(-c2cc(NC(=O)c3ccc(C)c(Nc4nccc(-c5cccnc5)n4)c3)cc(C(F)(F)F)c2)cn1 [nilotinib]
Summary of the method: as §1

[2] = compound: Cc1nc(Nc2n[nH]c3c2CN(C(=O)N[C@H](CN(C)C)c2ccccc2)C3(C)C)c2sccc2n1
Summary of the method: as §1

dasatinib = compound: Cc1nc(Nc2ncc(C(=O)Nc3c(C)cccc3Cl)s2)cc(N2CCN(CCO)CC2)n1 [dasatinib]
Summary of the method: as §1

[3] = compound: Cc1ncc(-c2ccnc(Nc3ccc(S(C)(=O)=O)cc3)n2)n1C(C)C
Summary of the method: as §1

[4] = compound: Cn1cc(-c2ccc3c(c2)CCN3C(=O)Cc2cccc(C(F)(F)F)c2)c2c(N)ncnc21
Summary of the method: as §1

[5] = compound: Cn1cc(-c2ccc3nnc(C(F)(F)c4ccc5ncccc5c4)n3n2)cn1
Summary of the method: as §1

tipifarnib = compound: Cn1cncc1[C@@](N)(c1ccc(Cl)cc1)c1ccc2c(c1)c(-c1cccc(Cl)c1)cc(=O)n2C [tipifarnib]
Summary of the method: as §1

mubritinib = compound: FC(F)(F)c1ccc(/C=C/c2nc(COc3ccc(CCCCn4ccnn4)cc3)co2)cc1 [mubritinib]
Summary of the method: as §1

[6] = compound: NC(=O)Nc1cc(-c2cccc(F)c2)sc1C(=O)N[C@H]1CCCNC1
Summary of the method: as §1

[7] = compound: NC(=O)c1cnc(N[C@@H]2CCCC[C@@H]2N)nc1Nc1cccc(-n2nccn2)c1
Summary of the method: as §1

[8] = compound: NC1(c2ccc(-c3nc4ccn5c(=O)[nH]nc5c4cc3-c3ccccc3)cc2)CCC1
Summary of the method: as §1

[9] = compound: NCC(=O)Nc1ccc(-n2nc(C(F)(F)F)cc2-c2ccc3c(ccc4ccccc43)c2)cc1
Summary of the method: as §1

entinostat = compound: Nc1ccccc1NC(=O)c1ccc(CNC(=O)OCc2cccnc2)cc1 [entinostat]
Summary of the method: as §1

vorinostat = compound: O=C(CCCCCCC(=O)Nc1ccccc1)NO [vorinostat]
Summary of the method: as §1

citarinostat = compound: O=C(CCCCCCNC(=O)c1cnc(N(c2ccccc2)c2ccccc2Cl)nc1)NO [citarinostat]
Summary of the method: as §1

silmitasertib = compound: O=C(O)c1ccc2c(c1)nc(Nc1cccc(Cl)c1)c1ccncc12 [silmitasertib]
Summary of the method: as §1

[10] = compound: O=C1NC(=O)C(c2cnc3ccccn23)=C1c1cn2c3c(cc(F)cc13)CN(C(=O)N1CCCCC1)CC2
Summary of the method: as §1

[11] = compound: c1cc(OCCN2CCCCC2)cc(-c2n[nH]c3ccc(-c4nnc[nH]4)cc23)c1
Summary of the method: as §1

Measured: log2 fold change

NDUFS8 (UniProt O00217)
inactive: bafetinib -0.055 | [1] 0.047 | nilotinib -0.036 | [2] -0.002 | dasatinib -0.1 | [3] -0.047 | [4] 0.1 | [5] 0.055 | tipifarnib -0.053 | mubritinib 0.111 | [6] -0.049 | [7] -0.042 | [8] -0.163 | [9] -0.018 | entinostat 0.065 | vorinostat 0.019 | citarinostat 0.024 | silmitasertib -0.019 | [10] -0.052 | [11] -0.041

NDUFAF3 (UniProt Q9BU61)
inactive: bafetinib -0.11 | [1] -0.009 | nilotinib -0.014 | [2] 0.013 | dasatinib -0.034 | [3] -0.032 | [4] 0.156 | [5] 0.011 | tipifarnib -0.018 | mubritinib 0.08 | [6] -0.026 | [7] -0.009 | [8] -0.067 | [9] 0.113 | entinostat -0.058 | vorinostat -0.009 | citarinostat 0.05 | silmitasertib -0.007 | [10] -0.008 | [11] -0.024

NEDD4L (UniProt Q96PU5)
inactive: bafetinib -0.037 | [1] -0.062 | nilotinib 0.015 | [2] -0.134 | dasatinib -0.103 | [3] 0.031 | [4] -0.097 | [5] -0.078 | tipifarnib -0.022 | mubritinib 0.01 | [6] -0.045 | [7] -0.062 | [8] -0.06 | [9] -0.074 | entinostat 0.075 | vorinostat 0.062 | citarinostat -0.001 | silmitasertib 0.114 | [10] -0.006 | [11] -0.034

NAT10 (UniProt Q9H0A0)
inactive: bafetinib 0.135 | [1] 0 | nilotinib -0.233 | [2] 0.023 | dasatinib 0.009 | [3] 0.103 | [4] -0.153 | [5] -0.005 | tipifarnib -0.003 | mubritinib -0.196 | [6] 0.202 | [7] 0.1 | [8] 0.265 | [9] 0.054 | entinostat -0.006 | vorinostat 0.104 | citarinostat -0.183 | silmitasertib 0.101 | [10] 0.236 | [11] -0.079

NAP1L4 isoform 2 (UniProt Q99733)
inactive: bafetinib -0.033 | [1] -0.031 | nilotinib 0.028 | [2] -0.028 | dasatinib 0.012 | [3] 0.021 | [4] -0.023 | [5] 0 | tipifarnib -0.044 | mubritinib -0.001 | [6] -0.034 | [7] -0.003 | [8] -0.001 | [9] 0.021 | entinostat 0.008 | vorinostat -0.027 | citarinostat -0.006 | silmitasertib 0.02 | [10] -0.037 | [11] 0.031

NAPG (UniProt Q99747)
inactive: bafetinib 0 | [1] 0.128 | nilotinib -0.057 | [2] -0.157 | dasatinib -0.133 | [3] -0.011 | [4] 0.034 | [5] 0.033 | tipifarnib -0.094 | mubritinib 0.062 | [6] -0.027 | [7] -0.087 | [8] -0.085 | [9] -0.094 | entinostat 0.102 | vorinostat 0.117 | citarinostat 0.075 | silmitasertib 0.032 | [10] -0.029 | [11] -0.017

NCEH1 isoform 2 (UniProt Q6PIU2)
inactive: bafetinib -0.031 | [1] -0.045 | nilotinib -0.013 | [2] -0.012 | dasatinib 0.009 | [3] 0.02 | [4] 0.025 | [5] 0.03 | tipifarnib 0.064 | mubritinib 0.05 | [6] 0 | [7] -0.048 | [8] -0.059 | [9] -0.031 | entinostat -0.033 | vorinostat -0.009 | citarinostat 0.042 | silmitasertib -0.022 | [10] 0.003 | [11] -0.007

NCOR2 (UniProt C9J0Q5)
inactive: bafetinib 0.005 | [1] 0.035 | nilotinib -0.012 | [2] 0.004 | dasatinib -0.026 | [3] -0.137 | [4] 0.02 | [5] 0.292 | tipifarnib -0.023 | mubritinib 0.094 | [6] -0.005 | [7] 0.066 | [8] -0.017 | [9] -0.049 | entinostat -0.056 | vorinostat -0.08 | citarinostat -0.071 | silmitasertib 0.037 | [10] -0.041 | [11] -0.016

NDUFA10 (UniProt O95299)
inactive: bafetinib -0.045 | [1] 0.138 | nilotinib -0.115 | [2] -0.017 | dasatinib -0.183 | [3] -0.011 | [4] 0.039 | [5] 0.037 | tipifarnib -0.069 | mubritinib 0.185 | [6] -0.059 | [7] 0.015 | [8] -0.105 | [9] -0.033 | entinostat 0 | vorinostat 0.061 | citarinostat 0.024 | silmitasertib -0.012 | [10] -0.067 | [11] -0.032

NCOA6 (UniProt Q14686)
inactive: bafetinib -0.053 | [1] 0.059 | nilotinib 0.021 | [2] 0.006 | [3] -0.001 | [5] 0.007 | tipifarnib 0.048 | mubritinib -0.018 | [6] 0.121 | [7] -0.017 | [8] 0.126 | [9] -0.001 | entinostat 0.015 | vorinostat -0.044 | citarinostat -0.069 | silmitasertib -0.035 | [10] -0.106 | [11] -0.14

NDST1 (UniProt P52848)
inactive: bafetinib 0.002 | [1] 0.034 | nilotinib 0.032 | [2] -0.019 | dasatinib 0.034 | [3] -0.028 | [4] -0.123 | tipifarnib 0.026 | mubritinib -0.065 | [6] -0.144 | [7] 0.026 | [8] 0.001 | [9] -0.04 | entinostat 0.003 | vorinostat -0.18 | citarinostat -0.061 | silmitasertib -0.022 | [10] -0.058 | [11] 0.128
